Assay results as given in PubChem BioAssay AID1625 (Sanford-Burnham Center for Chemical Genomics, 2009).
Among all 190,000 compounds or so, about 570 (0.3%) were called active. Inconclusive means that the source gave no clear call. Such entries were picked first, then a sample of the others.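 Rule for the calls: active = z-score above 3 at 5 µM with at least 500 cells counted in the well; inconclusive = wells under 500 cells, flagged as cytotoxic or low count; inactive = the rest.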

assay: up-regulation of insulin promoter-GFP reporter – imaging, high-content screening, mouse beta cells (AID 1625); conditions: MIN6 insulin promoter-GFP reporter, at 5 µM, active compounds read high

| Compound | z-score |
| --- | --- |
| Cc1cc(Nc2nn(C)c(N)c2C#N)ccc1F | active: 6.01 |
| C[C@@H](O)[C@@H]1NC(=O)c2cc([N+](=O)[O-])cc(I)c2NCC[C@@H](C(N)=O)NC(=O)CNC1=O | inconclusive: 0.23 |
| Cc1cc(C)n(-c2ccc(C(=O)OCC(=O)N(CC(C)C)C3CCS(=O)(=O)C3)cc2)n1 (stereo unspecified) | active: 3.33 |
| CCCCC(=O)NCc1ccc(Cl)cc1 | inconclusive: -4.82 |
| CCOC(=O)C1CCCN(C(=O)C2CCCN(S(=O)(=O)c3ccc4c(c3)oc(=O)n4C)C2)C1 (stereo unspecified) | inconclusive: -0.37 |
| Clc1ccc(C2=NNC(=NCc3ccccc3)SC2)cc1 | inactive: -0.07 |
| S=C(c1c[nH]c2ccccc12)N1CCOCC1 | inactive: -0.34 |
| CCN(CCNC(=O)C1CCCN(S(=O)(=O)CC)C1)c1ccccc1 (stereo unspecified) | active: 3.08 |
| COc1ccc(NC(=O)/C(Cl)=C(/Cl)S(=O)Cc2ccc(C)cc2)cn1 (stereo unspecified) | inconclusive: -2.63 |
| Cn1c(=O)n(C)c2cc(C(=O)Nc3ccc4c(c3)OCO4)ccc21 | inconclusive: -6.25 |
| O=C(Cc1ccccc1)Nc1cc(C(=O)c2ccccc2)ccc1N1CCOCC1 | inactive: -0.48 |
| O=C1C(Cl)=C(Nc2ccc3cn[nH]c3c2)C(=O)c2ccccc21 | inconclusive: -3.82 |
| CCOC(=O)c1cc2c(=O)n3cccc(C)c3nc2n(Cc2ccco2)c1=NC(=O)c1cccnc1 | inactive: -0.05 |
| O=C1N/C(=N/Nc2ccccc2)S/C1=C\c1ccccc1 | active: 3.19 |
| CSc1nsc(/C=C/Nc2ccc(C)cc2)c1C#N | active: 3.5 |
| C=C1CCN([C@H](C(=O)NCc2ccc(Cl)cc2)C(C)C)S(=O)(=O)c2ccccc21 | inactive: 0.19 |
| COc1ccc2nc(Nc3nc(CSc4nc5ccccc5[nH]4)cc(=O)[nH]3)nc(C)c2c1 | inconclusive: -2.28 |
| CC1CC(C)C[N+](=C2C=C(N3CCCC3)CC(C)(C)C2)C1 (stereo unspecified) | inconclusive: -0.92 |
| CC(C)=NNc1nc2c(c(=O)n(C)c(=O)n2C)n1CCc1ccccc1 | active: 4.22 |
| Cc1ccc(S(=O)(=O)CC2CSc3nc4ccccc4n32)cc1 (stereo unspecified) | inconclusive: -1.35 |
| CCOC(=O)C1(Cc2cccc(OC)c2)CCN(Cc2cnc(SC)nc2)CC1 | inactive: 0.17 |
| C/C(=N\S(=O)(=O)c1ccc(C)cc1)N1CCN(S(=O)(=O)c2ccccc2)C1 | active: 3.52 |
| CC[n+]1c(/C=C/C=C/N(C(C)=O)c2ccccc2)sc2ccccc21 | inconclusive: 13.6 |

Among those listed so far, these have two or more sulfur atoms:

| Compound | z-score |
| --- | --- |
| CSc1nsc(/C=C/Nc2ccc(C)cc2)c1C#N | active: 3.5 |
| Cc1ccc(S(=O)(=O)CC2CSc3nc4ccccc4n32)cc1 (stereo unspecified) | inconclusive: -1.35 |
| C/C(=N\S(=O)(=O)c1ccc(C)cc1)N1CCN(S(=O)(=O)c2ccccc2)C1 | active: 3.52 |

Another view of three compounds above.
COc1ccc(NC(=O)/C(Cl)=C(/Cl)S(=O)Cc2ccc(C)cc2)cn1 (stereo unspecified)
  z-score: inconclusive: -2.63
O=C(Cc1ccccc1)Nc1cc(C(=O)c2ccccc2)ccc1N1CCOCC1
  z-score: inactive: -0.48
C/C(=N\S(=O)(=O)c1ccc(C)cc1)N1CCN(S(=O)(=O)c2ccccc2)C1
  z-score: active: 3.52

Following part.

| Compound | z-score |
| --- | --- |
| N#C/C(=C\C1CC=CCC1)c1nc2ccccc2[nH]1 (stereo unspecified) | inconclusive: -2.54 |
| CCCCCCn1c(NCC)nc2c1c(=O)n(C)c(=O)n2C | inconclusive: -3.53 |
| COc1cccc(CNCCNC(=O)c2nonc2N)c1 | inactive: 0.03 |
| Cc1ccc(NC(=O)C2C(c3ccccc3)C2(Cl)Cl)c(C)c1 (stereo unspecified) | inactive: -0.63 |
| Cc1nc(N2CCN(C(=O)c3ccco3)CC2)c2c3c(sc2n1)CC(C)CC3 (stereo unspecified) | inconclusive: -2.17 |
| CCn1c(C)c(P(c2ccccc2)c2ccccc2)[n+]2ccccc12 | inconclusive: -3.69 |
| Cc1nn(-c2ccccc2)c(-c2ccccc2[N+](=O)[O-])c1C(=O)O | inactive: -0.24 |
| O=C(CC1SC(=Nc2ccc(OC(F)F)cc2)N(CCC2=CCCCC2)C1=O)Nc1ccccc1F (stereo unspecified) | inconclusive: -4.22 |
| Cc1nc(NC(=O)COC(=O)CCS(=O)(=O)c2ccccc2Cl)c(Cl)cc1Cl | active: 4.24 |
| Oc1ccc(Cl)cc1C1=Nc2ccccc2N=C(c2ccco2)C1 | active: 4.34 |
| CCC(=O)Nc1cc(C(=O)OCC(=O)c2ccccc2)ccc1C | inconclusive: -3.68 |
| CC[n+]1c(/C=C/c2ccc(N(C)C)cc2)ccc2ccccc21 | inconclusive: 3.14 |
| COc1cc(C2Oc3ccccc3C=C2[N+](=O)[O-])cc(OC)c1OC (stereo unspecified) | inconclusive: -1.04 |
| CC1(C)CC(N2CCN(Cc3ccccc3)CC2)=CC(=[N+]2CCCCC2)C1 | inconclusive: -2.17 |
| Brc1ccc2ncnc(NCc3ccco3)c2c1 | inconclusive: -1.31 |
| O=C(CCC1CCCCC1)Nc1c[nH]c(=O)[nH]c1=O | inactive: -0.15 |
| FC(F)(F)c1nc(N2CCCC2)ncc1-c1nnnn1-c1ccc(Cl)cc1 | inconclusive: -5.06 |
| CC1=Nc2ccccc2/C1=C/c1sc(=S)n(-c2cccc(C(=O)O)c2)c1O | active: 3.2 |
| COc1ccc(CCNC(=O)C2CCCCC2C(=O)O)cc1OC (stereo unspecified) | inactive: 0.35 |
| Cc1cc(C(=O)COC(=O)C2=NNC(=O)CC2)c(C)n1-c1ccc(OC(F)F)cc1 | inconclusive: -3.59 |
| CCN(CC)c1ccc(/C=N/Nc2nc(C)cc(=O)[nH]2)c(O)c1 | inconclusive: -3.85 |
| CC1=C(C(=O)Nc2nc3ccccc3s2)C(c2ccco2)C(C#N)=C(SCC(=O)NC2CCCCC2)N1 (stereo unspecified) | inactive: -1.57 |
| Cc1ccc(Cn2c(=N)n(CC(=O)c3ccc([N+](=O)[O-])cc3)c3ccccc32)cc1 | inconclusive: -1 |

| Compound | z-score |
| --- | --- |
| CSC(=NCCCN1CCOCC1)NS(=O)(=O)c1cccs1 | inactive: 0.41 |
| CCC(C)NC(=O)CC1Oc2ccc(C)cc2NC1=O (stereo unspecified) | inconclusive: -6.24 |
| O=C(Nc1ccc(S(=O)(=O)Nc2ncccn2)cc1)c1cccc(S(=O)(=O)N2CCCC2)c1 | inactive: 0.92 |
| COc1ccc(OC)c(S(=O)(=O)N2c3cc(F)ccc3CCC2C)c1 (stereo unspecified) | inactive: -0.79 |
| O=C(N/N=C/c1c(O)ccc2ccccc12)c1cccc(C(F)(F)F)c1 | inconclusive: -0.88 |
| NC(=O)c1ccc2c(=O)n3c(-c4cc(Cl)c(N)c(Cl)c4)csc3nc2c1 | inactive: -0.34 |
| O=C(N/N=C/c1cc2c(cc1Br)OCO2)c1ccccn1 | inactive: 0.32 |
| CC[n+]1c(/C=C2/C=C(C)CC(C)(C)C2)sc2ccc(OC)cc21 | inconclusive: -1.89 |
| CCOC(=O)c1cnc(SCC(=O)Nc2cc(OC)ccc2OC)nc1N | inconclusive: -4.58 |
| OC(COCc1cccs1)CN1CCN(c2cccc(Cl)c2)CC1 (stereo unspecified) | inconclusive: -4.35 |
| O=C(Nc1ccc(C(=O)N2CCOCC2)cc1)Nc1ccc(Cl)cc1Cl | inactive: -0.19 |
| Cc1ccc(/C=C2\C(=O)ON=C2c2ccccc2)o1 | inactive: 0.11 |
| COc1ccc(C2=NOC(C(=O)Nc3cc(C)nn3-c3ccccc3)C2)cc1OC (stereo unspecified) | inconclusive: -1.63 |
| Cc1cc(C)cc(-n2c(=O)c3sccc3n(CC(=O)NCc3ccco3)c2=O)c1 | active: 4.64 |
| CCn1nnc2sc3c(c2c1=O)CCC(C)C3 (stereo unspecified) | active: 3.59 |
| O=C(NC1C=CS(=O)(=O)C1)c1sc2ccccc2c1Cl (stereo unspecified) | active: 3.86 |
| Cc1cccc2cc3c(N)c(C(=O)N4CCc5ccccc54)sc3nc12 | active: 4.42 |
| C=CCc1c(C)nc(C)nc1N/N=C/c1ccc(N(C)C)cc1 | inconclusive: -6.19 |
| COc1cc(-c2nc(-c3ccc4c(c3)-c3ccccc3S4(=O)=O)c(-c3ccccc3)[nH]2)cc(OC)c1OC | inconclusive: -1.54 |
| CC1(C)Cc2c(ccc3ccccc23)C(c2cc3ccccc3oc2=O)=N1 | active: 4.19 |
| O=C(CN1CCOCC1)Nc1cccc(S(=O)(=O)N2CCCCCC2)c1 | inactive: 0.51 |
| c1cc2c(cc1C1CCCCC1)c1c3n2CCCNC3CCC1 (stereo unspecified) | inconclusive: -1.29 |
| COc1ccc(CC(=O)n2nc(-c3ccc(Cl)cc3)nc2NCc2ccco2)cc1 | inactive: 0.04 |

| Compound | z-score |
| --- | --- |
| CCOC(=O)CSc1nc2ccccc2n1CC(=O)N(C(C)C)C(C)C | inactive: 1.17 |
| Cc1ccc(S(=O)(=O)N2CCCOC2CNC(=O)C(=O)NCc2ccco2)cc1 (stereo unspecified) | inconclusive: -5.13 |
| O=C(COC(=O)c1ccco1)NCC1CCCO1 (stereo unspecified) | active: 3.04 |
| O=S(=O)(c1ccccc1)N1CCn2c(nc3ccccc32)C1 | inconclusive: -3.3 |
| O=C(CSc1nnc(SCc2ccc(Cl)cc2)s1)N/N=C/c1c(Cl)cccc1Cl | inactive: -0.49 |
| CC(C)NC(=O)/C(C#N)=C\c1ccc(N(C)C)o1 | active: 11.5 |
| Oc1ccccc1-c1nc(NCCN2CCOCC2)c2ccccc2n1 | inactive: 0.15 |
| Oc1c(CN2CCN(c3ccc(F)cc3)CC2)cc(Cl)c2cccnc12 | inconclusive: -3.11 |
| CCOC(=O)c1c(C(C#N)C#N)cc(C)nc1C | inconclusive: 0.05 |
| Cc1cccc(Oc2cc(NC(=O)c3ccccc3)cc([N+](=O)[O-])c2)c1 | inconclusive: -2.22 |
| CCOC(=O)c1c(C)oc2c(F)c(F)c(F)c(F)c2c1=O | inconclusive: -2.48 |
| O=C1C=C(NCCN2CCOCC2)C(=O)c2cnccc21 | inconclusive: -2.73 |
| CCCCC(CC(O)COCCC)C(=O)NN (stereo unspecified) | inactive: 0.43 |
| C/C(=N\NC(=O)NC1CCCCC1)C1CCCCC1 | inconclusive: -4.48 |
| CC1CC(=O)C2=C(C1)OC(N)=C(C#N)C2c1coc2ccccc2c1=O (stereo unspecified) | active: 3.02 |
| N=c1n(Cc2ccccc2)c2ccccc2n1CC(O)COc1ccc(Cl)cc1Cl (stereo unspecified) | inconclusive: -2.67 |
| c1ccc(CCNc2ncnc3ccccc23)cc1 | inconclusive: -3.13 |
| CCN(CC(=O)Nc1ccccc1OC)CC(=O)Nc1ccccc1C(F)(F)F | inactive: 0.1 |
| CCN(CC)S(=O)(=O)c1ccc(N2CCOCC2)c(NC(=O)Cc2cccc3ccccc23)c1 | inactive: -0.28 |
| COC(=O)C1=C(C)N=c2s/c(=C3\C(=O)Nc4ccccc43)c(=O)n2C1c1ccccc1 (stereo unspecified) | inconclusive: -4.7 |
| CC(C)(C)c1cc(C(=O)NCc2cccnc2)ccn1 | active: 4.34 |
| COc1cc(/C=C2\CC/C(=C\c3cc(OC)c(O)c(OC)c3)C2=O)cc(OC)c1O | inconclusive: -2.74 |
